Data: the supplement of paper PMC10689618
Where “and” joins values, the source holds several entries; their conditions need not be identical. Equal entries are not always repeated. Structures can show the parent of a compound that is named as a salt. The list shows a part of the results. Single values are uncertain, as repeats are few or missing.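 Labelled rat cortical synaptosomes were engulfed by primary human fetal astrocytes. Engulfment equaled a red/green ratio, corrected for calcein live-cell signal and normalized to the plate median. Compounds were toxic when calcein dropped over 30%, and reduced phagocytosis when below 70% of the median above 5 µM.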

How the values were obtained:
Settings in all cases: 24 h
[1] = system: Human fetal astrocytes; experiment: loss of total cells relative to no-compound high-control median (toxicity); higher = more toxic (fewer cells)
[2] = system: Human fetal astrocytes; experiment: synaptosome phagocytosis (pHrodo/calcein intensity ratio) relative to plate median of data wells; higher = more phagocytosis
[3] = system: Human fetal astrocytes; experiment: loss of total cells relative to no-compound high-control median (toxicity); higher = more toxic (fewer cells); remark: listed apart in the source
[4] = system: Human fetal astrocytes; experiment: synaptosome phagocytosis (pHrodo/calcein intensity ratio) relative to plate median of data wells; higher = more phagocytosis; remark: listed apart in the source

| Structure (SMILES) | loss of total cells ([1]; 1.39 µM) | loss of total cells ([1]; 2.78 µM) | loss of total cells ([1]; 5.56 µM) | loss of total cells ([1]; 11.11 µM) | loss of total cells ([1]; 22.22 µM) | synaptosome phagocytosis ([2]; 1.39 µM) | synaptosome phagocytosis ([2]; 2.78 µM) | synaptosome phagocytosis ([2]; 5.56 µM) | synaptosome phagocytosis ([2]; 11.11 µM) | synaptosome phagocytosis ([2]; 22.22 µM) | loss of total cells ([3]; 1.39 µM) | loss of total cells ([3]; 2.78 µM) | loss of total cells ([3]; 5.56 µM) | loss of total cells ([3]; 11.11 µM) | loss of total cells ([3]; 22.22 µM) | synaptosome phagocytosis ([4]; 1.39 µM) | synaptosome phagocytosis ([4]; 2.78 µM) | synaptosome phagocytosis ([4]; 5.56 µM) | synaptosome phagocytosis ([4]; 11.11 µM) | synaptosome phagocytosis ([4]; 22.22 µM) |
| --- | --- | --- | --- | --- | --- | --- | --- | --- | --- | --- | --- | --- | --- | --- | --- | --- | --- | --- | --- | --- |
| CCCN(CCC)S(=O)(=O)c1ccc(C(=O)O)cc1 | 8.6% | -27.5% | -32.1% | -11.8% | -6.4% | 110% | 95.9% | 134% | 101% | 100% |  |  |  |  |  |  |  |  |  |  |
| CCCNC(C)C(=O)Nc1ccccc1C (configuration not stated) [Prilocaine hydrochloride] | 33.1% | -31.7% | 23.6% | -0.3% | 24.6% | 127% | 92.4% | 107% | 79.7% | 110% | -7.1% | -6.9% | 9.6% | 1.1% | -12.3% | 110% | 116% | 114% | 130% | 148% |
| CCN(Cc1ccncc1)C(=O)C(CO)c1ccccc1 (configuration not stated) [Tropicamide] | 10.4% | -21.4% | -7.7% | 4.3% | 0.3% | 71.8% | 104% | 82% | 112% | 106% | -25.2% | -25.4% | -10.7% | -14.9% | -4.1% | 108% | 98.9% | 136% | 154% | 106% |
| C[C@H](CCC(=O)O)[C@H]1CC[C@H]2[C@@H]3C(=O)C[C@@H]4CC(=O)CC[C@]4(C)[C@H]3CC(=O)[C@]12C | 11.6% and 3.9% | -13.9% and 10.5% | -7.7% and 4.9% | 6.6% and -0.9% |  | 99.6% and 113% | 104% and 84.4% | 96.5% and 104% | 102% and 95.8% | 118% and 116% |  |  |  |  |  |  |  |  |  |  |
| OCc1ccccc1O[C@@H]1O[C@H](CO)[C@@H](O)[C@H](O)[C@H]1O | -40.3% | -54.8% | -3.7% | 40.3% | -0.3% | 97.2% | 84.5% | 129% | 124% | 59.3% |  |  |  |  |  |  |  |  |  |  |
| COc1cc([S+](C)[O-])ccc1-c1nc2cccnc2[nH]1 (configuration not stated) | 3.2% | 22% | 20.3% | 17.2% | 16.7% | 114% | 117% | 101% | 124% | 117% |  |  |  |  |  |  |  |  |  |  |
| O=C(CCCN1CCC(O)(c2ccc(Br)cc2)CC1)c1ccc(F)cc1 | -12% | -1.3% | 32.8% | 11.6% | 9.3% | 78% | 71.9% | 115% | 84.1% | 81% |  |  |  |  |  |  |  |  |  |  |
| CN(C)CCN(Cc1cccs1)c1ccccn1 [Methapyrilene hydrochloride] | -16.9% | 38.9% | -0.6% | 55.4% | 18.4% | 66.3% | 122% | 57% | 97.5% | 90.8% | -22.3% | 4.1% | -13.6% | 3.8% | 8.4% | 109% | 114% | 92.4% | 80.3% | 157% |
| CC(C)NC[C@H](O)COc1cccc2ccccc12 [(S)-Propranolol hydrochloride] | -11% | -32.2% | -30% | -0.3% | 25.2% | 104% | 82.8% | 91.9% | 61.3% | 88.6% | 14.6% | -13.5% | -10.7% | -9.6% | -8.2% | 118% | 89.1% | 91.1% | 106% | 88.9% |
| CCN1CCN(c2cc3c(cc2F)c(=O)c(C(=O)O)cn3C2CC2)CC1 | 9.8% | 10.6% | 23.7% | 51.6% | -5.6% | 70.9% | 106% | 125% | 142% | 120% |  |  |  |  |  |  |  |  |  |  |
| NS(=O)(=O)c1cc2c(cc1Cl)NC(C1CC3C=CC1C3)NS2(=O)=O (configuration not stated) [Cyclothiazide] | 31.5% | -29.4% | -0.6% | -0.3% | 10.3% | 124% | 97.8% | 88.8% | 93.7% | 96.3% | 2.9% | 8.5% | 10.7% | -21.1% |  | 67.7% | 80.4% | 68.5% | 76.4% |  |
| Nc1nc(F)nc2c1ncn2[C@@H]1O[C@H](COP(=O)(O)O)[C@@H](O)[C@@H]1O | -41.1% | 23.8% | 2.5% | 30.5% | 4.7% | 101% | 139% | 108% | 103% | 108% |  |  |  |  |  |  |  |  |  |  |
| COc1ccc(-c2cc(=O)c3ccccc3o2)cc1 | 30.1% | 23.9% | -15.3% | 47.1% | 26.3% | 124% | 122% | 115% | 148% | 139% |  |  |  |  |  |  |  |  |  |  |
| CCS(=O)(=O)CCn1c([N+](=O)[O-])cnc1C | -9.7% | -35.7% | 1.2% | 1.6% | 2.2% | 115% | 125% | 112% | 95.6% | 120% |  |  |  |  |  |  |  |  |  |  |
| CC(CN(C)C)CN1c2ccccc2CCc2ccccc21 (configuration not stated) [Trimipramine maleate] | -38.7% | -34.9% | 19.3% | 22.6% | 2.8% | 89.4% | 65.4% | 103% | 89.1% | 64.1% | -3.4% | -29.6% | 0% | -12.6% | -13.2% | 91.5% | 79.7% | 92.4% | 87.4% | 93.2% |
| CC(=O)O[C@]1(C)CC[C@@]23C[C@H]1C(C)(C)[C@@H]2CC[C@H]3C | -32.8% | 1.8% | -14.7% | 8.8% | -4.4% | 97.1% | 84.5% | 126% | 135% | 115% |  |  |  |  |  |  |  |  |  |  |
| OCCN(CCO)c1nc(N2CCCCC2)c2nc(N(CCO)CCO)nc(N3CCCCC3)c2n1 [Dipyridamole] | 5% | -17.3% | 13.2% | -8.4% | 25.2% | 104% | 78.2% | 109% | 89.5% | 94.5% | -10.5% | -13.7% | -5.8% | 9.4% | -8% | 96.4% | 80% | 91.2% | 93.9% | 98.7% |

Two entries picked at random from the list so far, as already listed:

| Structure (SMILES) | loss of total cells ([1]; 1.39 µM) | loss of total cells ([1]; 2.78 µM) | loss of total cells ([1]; 5.56 µM) | loss of total cells ([1]; 11.11 µM) | loss of total cells ([1]; 22.22 µM) | synaptosome phagocytosis ([2]; 1.39 µM) | synaptosome phagocytosis ([2]; 2.78 µM) | synaptosome phagocytosis ([2]; 5.56 µM) | synaptosome phagocytosis ([2]; 11.11 µM) | synaptosome phagocytosis ([2]; 22.22 µM) | loss of total cells ([3]; 1.39 µM) | loss of total cells ([3]; 2.78 µM) | loss of total cells ([3]; 5.56 µM) | loss of total cells ([3]; 11.11 µM) | loss of total cells ([3]; 22.22 µM) | synaptosome phagocytosis ([4]; 1.39 µM) | synaptosome phagocytosis ([4]; 2.78 µM) | synaptosome phagocytosis ([4]; 5.56 µM) | synaptosome phagocytosis ([4]; 11.11 µM) | synaptosome phagocytosis ([4]; 22.22 µM) |
| --- | --- | --- | --- | --- | --- | --- | --- | --- | --- | --- | --- | --- | --- | --- | --- | --- | --- | --- | --- | --- |
| OCc1ccccc1O[C@@H]1O[C@H](CO)[C@@H](O)[C@H](O)[C@H]1O | -40.3% | -54.8% | -3.7% | 40.3% | -0.3% | 97.2% | 84.5% | 129% | 124% | 59.3% |  |  |  |  |  |  |  |  |  |  |
| CCS(=O)(=O)CCn1c([N+](=O)[O-])cnc1C | -9.7% | -35.7% | 1.2% | 1.6% | 2.2% | 115% | 125% | 112% | 95.6% | 120% |  |  |  |  |  |  |  |  |  |  |
